The target in this assay is T1, receptor-interacting protein 3 (RIP3) (rat (endogenous in CTX TNA2 astrocytes)) (UniProt Q9Z2P5).
T1 sequence: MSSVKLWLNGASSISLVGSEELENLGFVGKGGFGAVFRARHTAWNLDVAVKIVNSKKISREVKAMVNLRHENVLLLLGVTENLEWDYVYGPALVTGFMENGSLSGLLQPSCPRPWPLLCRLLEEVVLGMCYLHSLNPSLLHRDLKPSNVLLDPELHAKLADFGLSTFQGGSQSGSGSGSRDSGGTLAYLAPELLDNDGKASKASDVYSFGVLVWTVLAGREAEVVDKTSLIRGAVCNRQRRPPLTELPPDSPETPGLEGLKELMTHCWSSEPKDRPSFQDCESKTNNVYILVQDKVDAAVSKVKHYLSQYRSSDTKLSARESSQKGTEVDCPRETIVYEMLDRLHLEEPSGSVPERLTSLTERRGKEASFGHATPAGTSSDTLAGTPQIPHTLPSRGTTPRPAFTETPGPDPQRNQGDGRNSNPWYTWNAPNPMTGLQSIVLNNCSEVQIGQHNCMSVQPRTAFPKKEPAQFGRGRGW
The assay is described as follows: co-IP; cell lysates in IP buffer; anti-RIP3 antibody (1 ug) or normal IgG for 2 h at 4 °C, protein A/G agarose beads overnight at 4 °C; partners detected by immunoblot. (Immunoblotting shows a protein as a band on a membrane.)

Results are given in words; binding and its absence hold for the method and conditions named. In cells and extracts the contact can be indirect. Binding calls can cover weak binding; strength is not graded here.

“ITCH (rat (endogenous in CTX TNA2 astrocytes))”: the binding result is “binds”.

Turning to “PML (rat (endogenous in CTX TNA2 astrocytes))”, the binding result was “no binding”.

The values are drawn from PMC11787194.
